# Data as given in PubChem BioAssay AID686938 (Drosophila RNAi Screening Center, 2013)
# Aim: 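Fly genes required for calcium entry once internal stores are emptied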 (primary screen)
# System: Drosophila S2R+ cells
# Reagents: long dsRNA against Drosophila genes, about 0.25 µg dsRNA per well, roughly 10,000 cells
# Time to read-out: 5 days of knock-down before the calcium assay
# Conditions: thapsigargin (SERCA pump blocker) to empty calcium stores; entry signal taken 4 min after adding it
# Detection: 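Duplicate raw fluo-4 intensities per well from a plate reader, at rest and four minutes after thapsigargin emptied calcium stores; entry-to-rest ratio filled for only some wells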
# Reading the numbers: calcium entry signal: higher = stronger calcium signal after store depletion; entry to resting ratio: higher = more calcium entry relative to resting level; resting calcium signal: higher = higher resting calcium signal
# Call rule: 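Called when the plate z-score of the entry-to-rest ratio, mean of duplicates, falls below −3; wells with low overall dye signal (Fmax z below −2) or more than five off-targets excluded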
# Calls: active = strongly reduced calcium entry; inactive = no strong reduction
# The screen tested about 23,000 reagents; below is a random part of those that have a named target and a result. Over the whole deposit, 75 (0.33%) got an active call. 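Raw plate signals without normalisation; calls rest on plate z-scores that were not deposited; ratio present for only 364 wells.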 The numbers tell different reagents against one gene apart. Not given: the dose of the treatment.
predicted target,dsRNA no.,"calcium entry signal, replicate 1 (fluorescence units)","calcium entry signal, replicate 2 (fluorescence units)",entry to resting ratio,"resting calcium signal, replicate 1 (fluorescence units)","resting calcium signal, replicate 2 (fluorescence units)",Outcome
CG12134,1,2.47e7,2.28e7,,1.22e7,1.12e7,inactive
Sfp53D (Seminal fluid protein 53D),1,2.57e7,5.84e7,,1.26e7,2.57e7,inactive
AQP (aquaporin),1,2.19e7,3.43e7,,1.24e7,1.58e7,inactive
CG31344,1,2.92e7,4.62e7,,1.60e7,7.24e7,inactive
CG42755 (retired record),1,3.25e7,5.96e7,,1.65e7,2.58e7,inactive
CG42755 (retired record),2,3.85e7,5.37e7,,2.01e7,2.36e7,inactive
Snoo (Sno oncogene),1,4.41e7,4.39e7,,2.19e7,1.89e7,inactive
Snoo (Sno oncogene),2,4.61e7,,,2.48e7,,inactive
Snoo (Sno oncogene),3,3.57e7,4.92e7,,1.67e7,2.14e7,inactive
Taf12 (TBP-associated factor 12),1,2.26e7,2.29e7,,1.14e7,1.31e7,inactive
igl (igloo),1,2.01e7,2.21e7,,9.78e6,1.12e7,inactive
Tssk (Testis-specific serine/threonine kinase),1,3.96e7,4.42e7,,4.50e7,2.12e7,inactive
CG17974,1,4.50e7,5.60e7,,2.41e7,2.36e7,inactive
CG10469,1,2.34e7,5.12e7,,1.23e7,2.17e7,inactive
Bub3,1,2.32e7,2.80e7,,1.28e7,1.59e7,inactive
CG14102,1,3.19e7,4.93e7,,1.52e7,2.19e7,inactive
CG9624,1,2.22e7,2.49e7,,1.13e7,4.46e7,inactive
Ir56b (Ionotropic receptor 56b),1,4.67e7,5.94e7,,2.11e7,2.65e7,inactive
lncRNA:CR42646 (long non-coding RNA:CR42646),1,2.92e7,6.26e7,,1.37e7,2.63e7,inactive
CG43153,1,3.78e7,4.48e7,,1.85e7,1.83e7,inactive
CG33290,1,3.64e7,3.36e7,,1.69e7,1.56e7,inactive
Os-C,1,4.74e7,3.35e7,,2.27e7,1.75e7,inactive
CG44433,1,5.22e7,5.58e7,,2.20e7,2.65e7,inactive
CG44433,2,5.87e7,6.60e7,,2.31e7,2.91e7,inactive
Sox21b,1,2.41e7,4.35e7,,1.25e7,2.28e7,inactive
Sox21b,2,5.66e7,5.92e7,,2.63e7,2.77e7,inactive
Sox21b,3,5.13e7,3.40e7,,2.68e7,1.69e7,inactive
Sox21b,4,5.99e7,2.17e7,,2.67e7,1.00e7,inactive
CG44153,1,3.79e7,5.52e7,,1.97e7,2.38e7,inactive
CG44153,2,3.97e7,,,2.04e7,,inactive
CG44153,3,1.97e7,3.32e7,,8.61e6,1.45e7,inactive
CG44153,4,3.34e7,5.38e7,,1.55e7,2.23e7,inactive
CG44153,5,2.66e7,3.54e7,,1.33e7,1.61e7,inactive
CG44153,6,1.89e7,2.91e7,,9.02e6,1.32e7,inactive
CG44153,7,2.24e7,3.16e7,,1.12e7,1.39e7,inactive
CG11980,1,3.61e7,3.68e7,,1.65e7,1.70e7,inactive
nec (necrotic),1,3.13e7,3.95e7,,1.45e7,1.76e7,inactive

3 consecutive entries already listed, quoted:
predicted target,dsRNA no.,"calcium entry signal, replicate 1 (fluorescence units)","calcium entry signal, replicate 2 (fluorescence units)",entry to resting ratio,"resting calcium signal, replicate 1 (fluorescence units)","resting calcium signal, replicate 2 (fluorescence units)",Outcome
CG44153,6,1.89e7,2.91e7,,9.02e6,1.32e7,inactive
CG44153,7,2.24e7,3.16e7,,1.12e7,1.39e7,inactive
CG11980,1,3.61e7,3.68e7,,1.65e7,1.70e7,inactive

The listing continues:
predicted target,dsRNA no.,"calcium entry signal, replicate 1 (fluorescence units)","calcium entry signal, replicate 2 (fluorescence units)",entry to resting ratio,"resting calcium signal, replicate 1 (fluorescence units)","resting calcium signal, replicate 2 (fluorescence units)",Outcome
CG34429,1,3.13e7,3.86e7,,1.70e7,1.67e7,inactive
Ppox (Protoporphyrinogen oxidase),1,2.83e7,4.55e7,,1.62e7,1.85e7,inactive
CG33725,1,3.61e7,4.78e7,,1.93e7,2.08e7,inactive
ACOX1 (acyl-CoA oxidase 1),1,3.44e7,3.62e7,,1.55e7,1.77e7,inactive
CG1662,1,4.08e7,4.39e7,,1.77e7,1.88e7,inactive
Gr93b (Gustatory receptor 93b),1,3.48e7,5.11e7,,1.71e7,2.35e7,inactive
Jra (Jun-related antigen),1,4.00e7,3.45e7,,1.72e7,1.64e7,inactive
Nepl12 (Neprilysin-like 12),1,3.66e7,3.52e7,,1.86e7,1.80e7,inactive
Sgs3 (Salivary gland secretion 3),1,2.88e7,4.15e7,,1.59e7,1.73e7,inactive
CG14691,1,3.53e7,3.91e7,,1.72e7,1.94e7,inactive
Naa20A (N(alpha)-acetyltransferase 20 A),1,2.14e7,2.19e7,,1.09e7,9.75e6,inactive
Cyp4s3 (Cytochrome P450 4s3),1,3.81e7,3.09e7,,1.96e7,1.46e7,inactive
Cyp4s3 (Cytochrome P450 4s3),2,3.80e7,6.34e7,,1.89e7,2.94e7,inactive
Su(P) (Suppressor of ref(2)P sterility),1,5.65e7,8.74e7,,2.56e7,2.92e7,inactive
CG16965,1,2.73e7,1.66e7,,1.34e7,8.25e6,inactive
CG5966,1,4.13e7,3.14e7,,1.59e7,1.50e7,inactive
nyo (nyobe),1,3.52e7,3.87e7,2.2,1.58e7,1.66e7,inactive
nyo (nyobe),2,2.99e7,3.44e7,2,1.53e7,1.43e7,inactive
Nsf2 (N-ethylmaleimide-sensitive factor 2),1,3.60e7,4.81e7,,1.77e7,2.63e7,inactive
NUCB1 (Nucleobindin 1),1,2.71e7,3.72e7,,1.32e7,1.68e7,inactive
CG9062,1,2.48e7,3.78e7,,1.32e7,1.69e7,inactive
